Data on 29 molecules can be found in PubChem BioAssay AID248 (DTP/NCI, 2004).

The experiment concerns L1210 leukemia ip in BDF1 mice, survival T/C. Description: NCI In Vivo Anticancer Drug Screen. Data for tumor model L1210 Leukemia (intraperitoneal) in B6D2F1 (BDF1) mice. As to conditions: T/C endpoint: mean survival time, higher T/C = longer survival.
Setting [1] is: dose: 400.0 mg/kg/injection, schedule: Q01DX009 (ip), vehicle: Klucel (hydroxypropylcellulose) (HPC).
[2] abbreviates: dose: 200.0 mg/kg/injection, schedule: Q01DX009 (ip), vehicle: Klucel (hydroxypropylcellulose) (HPC).
Setting [3] is: dose: 50.0 mg/kg/injection, schedule: Q01DX009 (ip), vehicle: saline with Tween-80.
Setting [4] is: dose: 100.0 mg/kg/injection, schedule: Q04DX002 (ip), vehicle: saline with Tween-80.
[5] abbreviates: dose: 400.0 mg/kg/injection, schedule: Q04DX003 (ip), vehicle: Klucel (hydroxypropylcellulose) (HPC).
Where [6] appears, read: dose: 400.0 mg/kg/injection, schedule: Q04DX002 (ip), vehicle: Klucel (hydroxypropylcellulose) (HPC).
[7] abbreviates: dose: 400.0 mg/kg/injection, schedule: Q01DX009 (ip), vehicle: saline.
[8] abbreviates: dose: 200.0 mg/kg/injection, schedule: Q04DX003 (ip), vehicle: saline.
Where [9] appears, read: dose: 400.0 mg/kg/injection, schedule: Q04DX003 (ip), vehicle: saline.

The list is a part of this screen's results and no random one: it gathers tests that were run many times, whatever their T/C, doses with no T/C, and many T/C values between a quarter and a half above the control. Other doses and runs of a compound stand elsewhere. T/C: endpoint of the treated group in % of that of the vehicle group. Some entries give survivors of the animals treated and no T/C: the source files T/C as zero there, which appears to mark a toxic dose or a test without result, not a measured value. Some survivor counts are full or nearly so, which does not show that the dose was tolerated: the source hardly ever lists a survival T/C far under the control, and the zero likely stands for such cases as well. Counts of survivors are from the toxicity check (mostly the fifth day) where no day follows; animals may have died later. Schedule codes are those of the source, read here as Q, the interval in days (D) or hours (H), X, the number of doses. Some doses were run more than once; their values stand side by side, smallest first. Some schedules carry Z or #; the key to these is not given. For survival time, this PubChem deposit counts one and a half times the control or more as active, and values a quarter to a half above the control carry no call in these data; other NCI protocols may use other cut-offs. Some T/C values are followed by the survivors on the day toxicity was checked, most often the fifth; where none is given, no animal had died by that day.

As to `COCC(=O)C(C(C)=O)C(c1ccc2c(c1)OCO2)C(C(C)=O)C(=O)COC` (configuration not stated), the survivor count runs as follows: (dose: 200.0 mg/kg/injection, schedule: Q01DX009 (ip), vehicle: saline with Tween-80) 6 of 6; (dose: 400.0 mg/kg/injection, schedule: Q01DX009 (ip), vehicle: saline with Tween-80) 6 of 6.
As for `CC(C)(C)c1ccc(SCCN=C(N)CSSCC(N)=NCCSc2ccc(C(C)(C)C)cc2)cc1`, the survivor count is, setting by setting: (dose: 100.0 mg/kg/injection, schedule: Q04DX003 (ip), vehicle: carboxymethylcellulose (CMC)) 0 of 6; (dose: 200.0 mg/kg/injection, schedule: Q04DX003 (ip), vehicle: carboxymethylcellulose (CMC)) 0 of 6; (dose: 400.0 mg/kg/injection, schedule: Q04DX003 (ip), vehicle: carboxymethylcellulose (CMC)) 0 of 6.
As to `CCOC(=O)c1ccc(NC(=O)Nc2ccc(F)cc2)cc1`, the survivor count under setting [1] is given as 1 of 6.
Take `C=CCSCC(=O)Cl`: the survivor count is 2 of 3 (dose: 200.0 mg/kg/injection, schedule: Q04DX002 (ip), vehicle: saline) and 0 of 3 (dose: 400.0 mg/kg/injection, schedule: Q04DX002 (ip), vehicle: saline).
Turning to `Nc1[nH]c(=O)ncc1-c1cccc(Cl)c1`, the survivor count (dose: 100.0 mg/kg/injection, schedule: Q01DX009 (ip), vehicle: Klucel (hydroxypropylcellulose) (HPC)) is listed as 0 of 3 and the survivor count under setting [2] is 0 of 3.
With `O=C(Nc1ccc(Cl)c(Cl)c1)c1ccco1`, the T/C (dose: 25.0 mg/kg/injection, schedule: Q01DX009 (ip), vehicle: saline with Tween-80) was 88, 95, 95 [5 of 6 alive], 109 % of control; the T/C under setting [3] was 87 [2 of 3 alive], 102 [5 of 6 alive], 103 % of control [2 of 3 alive]; the T/C under setting [4] was 97 [2 of 3 alive], 101 [5 of 6 alive], 103 % of control [4 of 6 alive]. The survivor count reads like this: under setting [3], 4 of 6; (dose: 100.0 mg/kg/injection, schedule: Q01DX009 (ip), vehicle: saline with Tween-80) 2 of 3; under setting [4], 1 of 3; (dose: 200.0 mg/kg/injection, schedule: Q04DX002 (ip), vehicle: saline with Tween-80) 1 of 6 and 1 of 3; (dose: 400.0 mg/kg/injection, schedule: Q04DX002 (ip), vehicle: saline with Tween-80) 0 of 3 and 0 of 6.
For the molecule `COc1c(Cl)c(C(Cl)(Cl)Cl)nc2ccccc12`, the survivor count under setting [2] was 2 of 3.
Consider `COC(=O)c1n[nH]c(C)c1N=NN(C)C`, for which the survivor count (dose: 300.0 mg/kg/injection, schedule: Q01DX001 (ip), vehicle: saline) is given as 0 of 6.
On to `[CH3][Sb]([CH3])([CH3])([O]C(=O)CF)[O]C(=O)CF`, for which the survivor count was 6 of 6 (dose: 10.0 mg/kg/injection, schedule: Q04DX003 (ip), vehicle: saline) and 4 of 6 (dose: 20.0 mg/kg/injection, schedule: Q04DX003 (ip), vehicle: saline).
In the case of `OC(CN1CCOCC1)c1ccccc1` (configuration not stated), the survivor count is listed as 3 of 6 under setting [1] and 3 of 6 under setting [5].
For the molecule `O=S(=O)(c1ccccc1)C(I)I`, the survivor count by setting is: (dose: 100.0 mg/kg/injection, schedule: Q04DX002 (ip), vehicle: Klucel (hydroxypropylcellulose) (HPC)) 1 of 3; (dose: 200.0 mg/kg/injection, schedule: Q04DX002 (ip), vehicle: Klucel (hydroxypropylcellulose) (HPC)) 0 of 3; under setting [6], 0 of 3.
`CC1=C(/C=C/C(C)=N/NC(N)=O)C(C)(C)CCC1`: the survivor count under setting [7] is recorded as 3 of 6.
Turning to `CCCCCCCCCC(=O)N1CCCCC1CC` (configuration not stated), the survivor count (dose: 400.0 mg/kg/injection, schedule: Q01DX009 (ip), vehicle: carboxymethylcellulose (CMC)) is 0 of 3 and 5 of 6.
As to `O=[N+]([O-])c1cc2c3c(cccc3c1)CC2`, the survivor count (dose: 200.0 mg/kg/injection, schedule: Q01DX001 (ip), vehicle: saline) is given as 6 of 6.
On to `CCCCOC(c1ccccc1)N1CCCCC1` (configuration not stated), for which the survivor count by setting is: (dose: 50.0 mg/kg/injection, schedule: Q01DX001 (ip), vehicle: carboxymethylcellulose (CMC)) 4 of 4; (dose: 100.0 mg/kg/injection, schedule: Q01DX001 (ip), vehicle: carboxymethylcellulose (CMC)) 4 of 4; (dose: 400.0 mg/kg/injection, schedule: Q01DX001 (ip), vehicle: carboxymethylcellulose (CMC)) 4 of 4.
For the molecule `NC(=S)N/N=C/c1ccco1`, the survivor count runs as follows: under setting [8], 3 of 6; (dose: 400.0 mg/kg/injection, schedule: Q01DX001 (ip), vehicle: saline) 0 of 6; under setting [9], 0 of 6.
As to `C(=N\Nc1nc2ccccc2s1)/c1ccc2ccccc2n1`, the survivor count under setting [1] is listed as 3 of 6.
As to `O=C(CCl)NCC(O)CNC(=O)CCl`, under “dose: 60.0 mg/kg/injection, schedule: Q01DX Z (ip), vehicle: saline”, the T/C was 135 % of control.
With `COCC(=O)Oc1cc(-c2ccc(C)cc2C)c(OC(=O)COC)c(-c2ccc(C)cc2C)c1`, the survivor count is reported as 6 of 6 (dose: 75.0 mg/kg/injection, schedule: Q04DX003 (ip), vehicle: Klucel (hydroxypropylcellulose) (HPC)) and 5 of 6 (dose: 150.0 mg/kg/injection, schedule: Q04DX003 (ip), vehicle: Klucel (hydroxypropylcellulose) (HPC)).
In the case of `N/C([Se])=N\N=C/c1cccnc1`, the survivor count is 0 of 6 (dose: 100.0 mg/kg/injection, schedule: Q01DX001 (ip), vehicle: Klucel (hydroxypropylcellulose) (HPC)); 0 of 6 (dose: 200.0 mg/kg/injection, schedule: Q01DX001 (ip), vehicle: Klucel (hydroxypropylcellulose) (HPC)); 0 of 6 (dose: 400.0 mg/kg/injection, schedule: Q01DX001 (ip), vehicle: Klucel (hydroxypropylcellulose) (HPC)).
For the molecule `CCNC(=S)NNC(=S)NNc1ccccc1`, the survivor count is 0 of 3 (dose: 100.0 mg/kg/injection, schedule: Q04DX002 (ip), vehicle: other); 0 of 3 (dose: 200.0 mg/kg/injection, schedule: Q04DX002 (ip), vehicle: other); 0 of 3 (dose: 400.0 mg/kg/injection, schedule: Q04DX002 (ip), vehicle: other).
Consider `CN(C)CCCN1c2cc(Cl)ccc2Sc2ccc(Cl)cc21`, for which the survivor count under setting [6] was 0 of 3.
Regarding `c1ccc(CNCc2ccccc2)cc1`, the survivor count under setting [5] was 0 of 6.
As for `CC(C)(C)N=Cc1ccccc1O.CC(C)(C)N=Cc1ccccc1O.[Cu]`, the survivor count was 0 of 6 (dose: 100.0 mg/kg/injection, schedule: Q04DX003 (ip), vehicle: Klucel (hydroxypropylcellulose) (HPC)); 2 of 6 (dose: 200.0 mg/kg/injection, schedule: Q04DX003 (ip), vehicle: Klucel (hydroxypropylcellulose) (HPC)); 0 of 6 under setting [5].
`O=C(/C=C/c1cccnc1)/C=C/c1cccnc1`: the survivor count runs as follows: (dose: 35.0 mg/kg/injection, schedule: Q01DX009 (ip), vehicle: Klucel (hydroxypropylcellulose) (HPC)) 3 of 6; (dose: 55.0 mg/kg/injection, schedule: Q01DX009 (ip), vehicle: Klucel (hydroxypropylcellulose) (HPC)) 2 of 6.
Regarding `CCN(CC)Cc1cc(Nc2c3ccccc3nc3cc(Cl)ccc23)ccc1O`, the survivor count was 3 of 6 (dose: 100.0 mg/kg/injection, schedule: Q01DX Z (ip), vehicle: saline); 6 of 6 under setting [8]; 0 of 6 under setting [9].
On to `Nc1nc(N)c2nc(NCc3ccc(C(=O)NC(CCC(=O)O)C(=O)O)cc3)cnc2n1` (configuration not stated), for which the T/C was 94, 95, 117, 120 % of control (dose: 100.0 mg/kg/injection, schedule: Q04DX003 (ip), vehicle: saline); 95, 109, 110, 116 % of control under setting [8]; 127 % of control under setting [7]; 111, 114, 126, 132 % of control under setting [9].
Consider `CNC(=O)ON=C1CCC(CC2CCCCC2)CC1` (configuration not stated), for which the survivor count under setting [5] is 2 of 6.
In the case of `O=C1OC(=O)C2C3OC(C(Cl)C3Cl)C12` (configuration not stated), under setting [1], the survivor count is 2 of 6.
